What was measured:
[1] = in vitro; conditions: male, Sprague-Dawley, rat, hepatocytes, hepatocyte (rat) T1/2 (min), 1 μM test compound
[2] = system: Rat small mesenteric artery
[3] = system: Mouse small mesenteric artery (NPR-C KO); conditions: vasorelaxation, NPR-C knockout

Row | half-life at 1 μM [1] | Rat small mesenteric artery EC50+NPR-C inhibitor (M372049) ± SEM (μM) [2] | Mouse small mesenteric artery NPR-C KO EC50 ± SEM (μM) [3] | Compound
1 | < 10 min | maintained their activity | maintained their activity | CC(=O)Nc1ccc(Nc2ncnc(N[C@@H](Cc3ccccc3)C(=O)OC(C)(C)C)n2)cc1 [Compound 41, tert-Butyl (4-((4-Acetamidophenyl)amino)-1,3,5-triazin-2-yl)-L-phenylalaninate]
2 | 12 min | – | – | CC(=O)Nc1ccc(Nc2ncnc(N[C@@H](CC(C)C)C(=O)OC(C)(C)C)n2)cc1 [Compound 26, tert-Butyl (4-((4-Acetamidophenyl)amino)-1,3,5-triazin-2-yl)-L-leucinate]
